PubChem BioAssay AID1259254, NCATS – 2017
The whole screen tested about 59,000 reagents; this is a random part of them. About 1,550 of them (2.6%) were called active. 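G2 share is only a proxy for re-replication; each gene was hit by three separate siRNAs, and active genes were retested.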 The raw values are shown without normalisation. Reagents against one gene are numbered here. Not given: the amount of reagent.

Purpose: 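Gene knock-downs that lead to re-replication, shown by excess G2 DNA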 (primary screen)
System: human HCT116 colorectal cancer cells
Knock-down reagent: single siRNA against human genes
Timing: 3 days
Measurement: 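Imaged Hoechst DNA stain sorts each cell into a cycle phase by DNA amount; per plate, G2 fraction set to 0% for non-targeting and 100% for GMNN siRNA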
Direction: G2 robust z-score and G2 cells, % of GMNN control: higher = more G2 cells, more excess DNA replication; raw share of cells in G2: higher = larger share of cells with G2 DNA content
Call rule: 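Active siRNAs have a G2 robust z of 5 or more median absolute deviations over the median, which in these data means about 38% or higher of GMNN control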

The opening 3 records, ahead of the listing:
G2 robust z-score	G2 cells, % of GMNN control	raw share of cells in G2 (%)	call	target	siRNA no.
-0.149	1.92	3.28	inactive	ASB7	1
0.266	4.84	6	inactive	ASB7	2
-0.0995	2.27	3.82	inactive	ASB7	3

The listing, repeating the preview:
G2 robust z-score	G2 cells, % of GMNN control	raw share of cells in G2 (%)	call	target	siRNA no.
-0.149	1.92	3.28	inactive	ASB7	1
0.266	4.84	6	inactive	ASB7	2
-0.0995	2.27	3.82	inactive	ASB7	3
0.965	9.75	8.08	inactive	APOL2	1
3.31	26.2	15.3	inactive	APOL2	2
-0.58	-1.11	2.91	inactive	APOL2	3
-0.105	2.23	6.28	inactive	MINK1	1
2.18	18.3	11.9	inactive	MINK1	2
1.57	14	8.16	inactive	MINK1	3
-1.28	-6	2.15	inactive	PLS3	1
-0.267	1.09	5.1	inactive	PLS3	2
-0.37	0.367	5.1	inactive	PLS3	3
0.406	5.83	8.06	inactive	TSHR	1
1.37	12.6	8.64	inactive	TSHR	2
2.9	23.4	13	inactive	TSHR	3
-0.124	2.09	6	inactive	ASAP2	1
2.56	20.9	12.2	inactive	ASAP2	2
-1.14	-5.09	2.23	inactive	ASAP2	3
-0.547	-0.884	2.7	inactive	C20orf204	1
0.178	4.22	4.55	inactive	C20orf204	2
2.12	17.9	10.2	inactive	C20orf204	3
9.18	67.6	29.1	active	ATF2	1
-1.22	-5.63	2.16	inactive	ATF2	2
-0.639	-1.53	4.43	inactive	ATF2	3
-0.717	-2.07	1.78	inactive	ARHGAP42	1
2.02	17.2	9.83	inactive	ARHGAP42	2
-0.0599	2.55	4.21	inactive	ARHGAP42	3
0.349	5.42	5.65	inactive	ARHGAP42	4
-0.534	-0.786	2.67	inactive	ARHGAP42	5
2.63	21.5	10.6	inactive	ARHGAP42	6
0.514	6.58	8.56	inactive	ALG3	1
-0.101	2.26	4.57	inactive	ALG3	2
0.571	6.98	9.23	inactive	ALG3	3
5.52	41.8	19.8	active	ORMDL2	1
-0.603	-1.28	4.07	inactive	ORMDL2	2
-0.637	-1.51	2.78	inactive	ORMDL2	3
-0.502	-0.563	3.24	inactive	HLA-DMA	1
1.11	10.8	9.89	inactive	HLA-DMA	2
0.098	3.66	4.44	inactive	HLA-DMA	3
0.168	4.15	6.17	inactive	LY6G6C	1
-0.211	1.48	4.95	inactive	LY6G6C	2
0.747	8.22	4.63	inactive	LY6G6C	3
0.293	5.03	5.46	inactive	STX5	1
3.56	28	18	inactive	STX5	2
1.71	15	8.55	inactive	STX5	3
-0.866	-3.13	2.05	inactive	TMEM14EP	1
0.0575	3.37	5.05	inactive	TMEM14EP	2
-0.751	-2.32	2.36	inactive	TMEM14EP	3
-0.963	-3.81	1.9	inactive	SNRNP40	1
4.72	36.2	18.9	inactive	SNRNP40	2
-0.465	-0.303	4.63	inactive	SNRNP40	3
2.35	19.5	13.7	inactive	ABCG8	1
-0.77	-2.45	3.48	inactive	ABCG8	2
0.405	5.82	6.34	inactive	ABCG8	3
0.594	7.15	8.56	inactive	TCAF1	1
1.91	16.4	10.8	inactive	TCAF1	2
-0.465	-0.301	3.3	inactive	TCAF1	3
7.07	52.7	29.2	active	DEPDC5	1
0.455	6.17	6.52	inactive	DEPDC5	2
4.36	33.6	15.6	inactive	DEPDC5	3
-0.631	-1.47	3.08	inactive	GIMAP1	1
1.27	11.9	6.96	inactive	GIMAP1	2
-0.019	2.83	3.66	inactive	GIMAP1	3
-0.498	-0.536	4.22	inactive	FAAP100	1
1.53	13.7	10.3	inactive	FAAP100	2
-0.0711	2.47	3.05	inactive	FAAP100	3
1.09	10.6	9.84	inactive	PPFIBP2	1
0.498	6.47	6.46	inactive	PPFIBP2	2
-0.535	-0.797	3.07	inactive	PPFIBP2	3
